This passage reports binding results from doi:10.1101/2022.07.26.501557.

By UniProt entry, the sequences of proteins in these tests, tags left out. Where a name states a change or a piece, a line headed by the entry shows the natural chain unless it says otherwise.
UniProt Q60751: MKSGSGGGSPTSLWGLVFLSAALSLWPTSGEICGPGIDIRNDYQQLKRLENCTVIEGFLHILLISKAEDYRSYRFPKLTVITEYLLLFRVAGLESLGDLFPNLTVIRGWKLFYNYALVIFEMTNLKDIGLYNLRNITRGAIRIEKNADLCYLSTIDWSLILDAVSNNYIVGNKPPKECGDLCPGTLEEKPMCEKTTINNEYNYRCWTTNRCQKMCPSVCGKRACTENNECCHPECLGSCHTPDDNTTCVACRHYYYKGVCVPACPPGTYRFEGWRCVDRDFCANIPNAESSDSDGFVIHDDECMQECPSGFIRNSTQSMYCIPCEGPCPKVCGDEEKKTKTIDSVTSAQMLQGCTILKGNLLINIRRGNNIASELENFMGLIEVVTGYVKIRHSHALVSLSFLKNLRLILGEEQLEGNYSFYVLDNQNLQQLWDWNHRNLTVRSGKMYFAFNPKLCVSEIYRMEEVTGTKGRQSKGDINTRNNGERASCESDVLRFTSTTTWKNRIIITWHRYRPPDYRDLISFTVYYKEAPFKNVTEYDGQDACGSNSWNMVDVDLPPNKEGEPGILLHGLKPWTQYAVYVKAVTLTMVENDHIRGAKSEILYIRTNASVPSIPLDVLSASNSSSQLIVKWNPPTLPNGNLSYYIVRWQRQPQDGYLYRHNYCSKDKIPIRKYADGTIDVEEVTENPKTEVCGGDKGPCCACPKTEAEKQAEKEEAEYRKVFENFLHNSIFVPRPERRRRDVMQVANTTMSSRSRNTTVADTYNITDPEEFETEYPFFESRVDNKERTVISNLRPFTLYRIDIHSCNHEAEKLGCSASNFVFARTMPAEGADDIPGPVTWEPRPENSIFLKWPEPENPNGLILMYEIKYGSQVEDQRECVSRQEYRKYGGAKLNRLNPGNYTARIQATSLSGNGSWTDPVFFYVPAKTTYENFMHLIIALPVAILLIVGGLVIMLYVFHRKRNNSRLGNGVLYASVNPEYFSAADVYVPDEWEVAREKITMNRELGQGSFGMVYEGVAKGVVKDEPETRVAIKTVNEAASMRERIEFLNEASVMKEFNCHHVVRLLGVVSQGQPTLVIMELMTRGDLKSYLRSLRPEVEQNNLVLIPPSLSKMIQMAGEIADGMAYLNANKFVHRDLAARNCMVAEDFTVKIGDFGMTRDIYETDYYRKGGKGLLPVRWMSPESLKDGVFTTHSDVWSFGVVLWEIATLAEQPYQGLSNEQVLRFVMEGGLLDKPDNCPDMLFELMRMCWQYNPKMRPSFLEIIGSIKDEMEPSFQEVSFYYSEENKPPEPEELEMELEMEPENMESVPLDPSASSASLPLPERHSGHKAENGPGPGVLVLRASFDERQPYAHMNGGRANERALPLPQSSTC

No constants are given. Whether binding was seen depends on the method and setting. In cells and extracts the contact can be indirect. Binding can be weak; no strength is given.

For the experiment, the target named is T1, Glypican 1 (mouse (endogenous in mouse colon tumoroids)) (UniProt Q9QZF2).
T1 sequence: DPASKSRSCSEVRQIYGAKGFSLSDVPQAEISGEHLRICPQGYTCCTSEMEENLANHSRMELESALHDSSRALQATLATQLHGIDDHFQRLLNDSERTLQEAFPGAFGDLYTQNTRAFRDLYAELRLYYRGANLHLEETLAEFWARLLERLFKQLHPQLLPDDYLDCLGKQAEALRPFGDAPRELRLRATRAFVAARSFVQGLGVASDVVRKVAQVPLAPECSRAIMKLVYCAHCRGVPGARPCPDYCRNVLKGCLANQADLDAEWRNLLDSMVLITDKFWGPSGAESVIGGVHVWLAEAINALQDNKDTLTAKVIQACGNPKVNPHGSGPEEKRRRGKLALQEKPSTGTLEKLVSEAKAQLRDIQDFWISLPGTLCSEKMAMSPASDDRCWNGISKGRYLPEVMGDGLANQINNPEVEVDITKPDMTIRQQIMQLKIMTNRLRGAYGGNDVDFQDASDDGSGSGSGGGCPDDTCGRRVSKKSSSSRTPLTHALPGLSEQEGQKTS
Nature of the experiment: co-IP.

Turning to IGF1Rβ (from UniProt Q60751) (receptor), the binding result is “binds”.
